Data as given in patent US10188617B2, “Modulation of cellular DNA repair activity to intercept malignancy” (THE BOARD OF TRUSTEES OF THE LELAND STANFORD JUNIOR …, priority 2013, dated 2019).

Tested on: BER of ODD in SUM149PT cells
Experiment: High-throughput chemical screen with cell-based DNA repair assay (oxidatively damaged GFP reporter, host-cell reactivation);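 note: SUM149PT cells pretreated 24 h with compound, then given photodynamically oxidized adenoviral GFP reporter, 24 h host-cell reactivation, GFP read as repair, undamaged reporter positive and damaged reporter negative control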
Settings: read-out: EC50 (image analysis); dose-response increase in GFP expression by imaging; 20 μM to 0.3 μM two-fold dilutions

Compound: Clc1ccccc1C(c1ccccc1)(c1ccccc1)n1ccnc1 [Clotrimazole]
- EC50: 20.8 µM
